Results are given in words; binding and its absence hold for the method and conditions named. Some results given as binding are weak or reduced against the parent protein; the word gives no strength.

Sequences of proteins named here, by UniProt entry; tags and fusion partners are left off. A change or cut given only in a name is not applied to a line headed by its entry. Residues count along the entry.
UniProt P17948, residues 132-226: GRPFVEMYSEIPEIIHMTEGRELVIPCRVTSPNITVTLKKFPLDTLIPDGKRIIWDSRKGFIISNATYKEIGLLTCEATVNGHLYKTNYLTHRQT

Test [1] concerns the target human VEGFR1 domain 2 (hVEGFR1d2) (human) (UniProt P17948). Briefly: condition: only with EDTA (1.8 eq, 270 μM) added to the sample with cadmium; NMR titration; 1H-15N TROSY of 150 μM 15N-labelled hVEGFR1d2 with 270 μM CdCl2 after addition of EDTA (1.8 eq, 270 μM); 300 K; both purified.
Test [2] shares this target. Briefly: SAXS; hVEGFR1d2 in solution without CoCl2, after removal of all divalent metal ions (0.25 mM EDTA, dialysis against 20 mM HEPES-NaOH pH 7.0 with Chelex 100), up to 5 mg/mL, 277 K; both purified.
The target is the same in test [3]. Briefly: SEC; Superdex 75 HR 10/300; 160 μM hVEGFR1d2 incubated 30 min at 18°C and eluted in 25 mM Tris-HCl pH 8.1, 250 mM NaCl, 1 mM EDTA; both purified.

Regarding “human VEGFR1 domain 2 (hVEGFR1d2) (from UniProt P17948-2 132-226) (domain or fragment)”, the values for the binding result in test [1], in test [2] and in test [3] were “no binding”, “binds weakly” and “no binding (condition: with 1 mM EDTA (160 μM hVEGFR1d2))”, respectively.

(Values after paper PMC5152890 (PLoS ONE, 2016).)
